Results: PubChem BioAssay AID1259415 (National Center for Advancing Translational Sciences (NCATS), 2018)
Several values for one entry are separate records, joined by “and”; a condition that tells them apart may be missing. Equal entries are not always repeated. Out of some 410,000 compounds screened, about 18,000 (4.4%) were called active. The inconclusive results got no clear call from the source; some entries with a clear call stand among them for comparison. Cut-off read from the data, not from the text of the source: active = activity change below about -60%; inconclusive = no clear call, values can overlap the other calls; inactive = above about -39%. Some compounds were tested as several samples or in several runs, with calls that do not always agree.

Test: qHTS Assay for inhibitors of the human cytomegalovirus (HCMV)
Settings: HFF cells, HCMV-luciferase reporter, 72 h; at 57.5 µM; stronger effect = lower value
How it was run: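 HFF cells seeded 16 h at 37C, treated with compounds, infected with luciferase-reporter HCMV at MOI 1 PFU/cell; luciferase read at 72 h post infection, normalized to buffer-only and Salinomycin controls.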
% is set by controls: 0 for no effect and ±100 for the full control effect.

Structure (SMILES) | activity change, negative = inhibition
Cc1nc2nc(N)nc(OCc3ccccc3)c2nc1C | inconclusive: -40.3%
CCCCCCSc1ccc(-c2nc3ccc(C)cn3c2NC2CCCCC2)cc1 | inactive: 17.4%
CC1(C)Cc2c(sc3nnn(Cc4ccc(Cl)cc4)c(=O)c23)CO1 | inconclusive: -52%
Cc1ccc(OCC(=O)Nc2ccc3c(c2)nc(CCN2CCC(C)CC2)n3C)cc1 | active: -70.3%
O=C(CSc1ccc(-c2cccnc2)nn1)Nc1ccccc1C(F)(F)F | inconclusive: -44.9%
Cc1c(CCOC(=O)c2ccccc2)sc[n+]1Cc1ccccc1 | inactive: -15.3%
CC1CC(C)CN(S(=O)(=O)c2ccc3c(c2)CC(=O)N3)C1 (stereo unspecified) | inactive: -9.62%
O=C(NCc1ccco1)Nc1ccc([N+](=O)[O-])cc1 | inconclusive: -47.6%
CCSc1nsc(NC(=O)Nc2cccc(OC)c2)n1 | inconclusive: -56.8%
COc1ccc([N+](=O)[O-])cc1NC(=O)CSc1ccc2ccccc2c1 | inconclusive: -56%
Cc1ccc(NS(=O)(=O)c2ccc3c(c2)oc(=O)n3C)c(C)c1 | inconclusive: -42.4%
Cc1ccc(OCC(=O)NC2CCCCCC2)cc1C | inactive: 13.5%
c1ccc(-c2nc(NCc3ccco3)c3ccccc3n2)cc1 | active: -68%
Cc1cc(Cl)c(S(=O)(=O)NC2CCCC2)cc1OCC(=O)NC1CCCCC1 | active: -90.1%
C=CCN(CC=C)c1ccc(N2C(=O)C3CCCCC3C2=O)cc1[N+](=O)[O-] (stereo unspecified) | inconclusive: -40.2%
Cc1cc(S(=O)(=O)NC(C)c2nnc3ccccn23)ccc1Br (stereo unspecified) | inactive: 16.7%
COc1ccc(-c2ccc(/C=C(\NC(=O)c3ccccc3)C(=O)N3CCOCC3)o2)cc1 | active: -62.9%
CCCCC(=O)NNC(=O)N1c2ccccc2Sc2ccccc21 | inactive: 1.21%
CC(=O)/C(=N\Nc1cccc(Cl)c1)Sc1nnc(-c2ccccc2)n1-c1ccccc1 | inconclusive: -52.9%
COCOCCn1cc(CN2CCS(=O)(=O)N(Cc3ccc(-c4ccncc4)cc3)C(CC(C)C)C2=O)nn1 (stereo unspecified) | inactive: 9.27%
O=S(=O)(c1ccc2ccccc2c1)N1CCN(C(=S)Nc2ccc(F)cc2)CC1 | inconclusive: -58%
COc1ccc(CNC(=O)C(C)n2nc(C)c3c(C)n(-c4ccccc4)nc3c2=O)c(OC)c1 (stereo unspecified) | active: -69.2%

14 compounds already listed, arranged by count of non-hydrogen atoms, largest number first.
Structure (SMILES) | activity change, negative = inhibition
COCOCCn1cc(CN2CCS(=O)(=O)N(Cc3ccc(-c4ccncc4)cc3)C(CC(C)C)C2=O)nn1 (stereo unspecified) | inactive: 9.27%
COc1ccc(CNC(=O)C(C)n2nc(C)c3c(C)n(-c4ccccc4)nc3c2=O)c(OC)c1 (stereo unspecified) | active: -69.2%
COc1ccc(-c2ccc(/C=C(\NC(=O)c3ccccc3)C(=O)N3CCOCC3)o2)cc1 | active: -62.9%
CC(=O)/C(=N\Nc1cccc(Cl)c1)Sc1nnc(-c2ccccc2)n1-c1ccccc1 | inconclusive: -52.9%
CCCCCCSc1ccc(-c2nc3ccc(C)cn3c2NC2CCCCC2)cc1 | inactive: 17.4%
O=S(=O)(c1ccc2ccccc2c1)N1CCN(C(=S)Nc2ccc(F)cc2)CC1 | inconclusive: -58%
Cc1cc(Cl)c(S(=O)(=O)NC2CCCC2)cc1OCC(=O)NC1CCCCC1 | active: -90.1%
O=C(CSc1ccc(-c2cccnc2)nn1)Nc1ccccc1C(F)(F)F | inconclusive: -44.9%
COc1ccc([N+](=O)[O-])cc1NC(=O)CSc1ccc2ccccc2c1 | inconclusive: -56%
CC1(C)Cc2c(sc3nnn(Cc4ccc(Cl)cc4)c(=O)c23)CO1 | inconclusive: -52%
c1ccc(-c2nc(NCc3ccco3)c3ccccc3n2)cc1 | active: -68%
Cc1nc2nc(N)nc(OCc3ccccc3)c2nc1C | inconclusive: -40.3%
Cc1ccc(OCC(=O)NC2CCCCCC2)cc1C | inactive: 13.5%
O=C(NCc1ccco1)Nc1ccc([N+](=O)[O-])cc1 | inconclusive: -47.6%

Following part

Structure (SMILES) | activity change, negative = inhibition
CCc1nn2c(=O)cc(COC(=O)c3ccccc3NC(=O)COc3ccc(C)c(C)c3)nc2s1 | inconclusive: -40.4%
COc1ccccc1NC(=O)CCSc1nc(C)cc(C)n1 | inconclusive: -42.2%
Cc1cccc(N2CCN(S(=O)(=O)c3cc(C(=O)Nc4ccc(Oc5ccccc5)cc4)ccc3F)CC2)c1C | inconclusive: -54%
O=c1oc2ccccc2c(N2CCN(c3ccc(F)cc3)CC2)c1CN1CCCC1 | inactive: -19.8%
C[C@H](NC(=O)c1nc[nH]c1C(=O)NCCCCCNC(=O)OC(C)(C)C)C(=O)OC(C)(C)C | inconclusive: -47.4%
COc1cc(C2N(c3ccccc3)CCN2c2ccccc2)ccc1OC(C)=O | active: -62.8%
Cc1ccccc1Nc1nnc(C)c(=O)n1N | inconclusive: -47.1%
O=C(Nc1cccc(Cl)c1N1CCOCC1)c1ccco1 | inconclusive: -54.9%
O=C1C(=O)c2cccc3cccc1c23 | inconclusive: -43.6%
CCN(CC)S(=O)(=O)c1ccc(C)c(NC(=O)CNc2cccc(S(=O)(=O)N3CCCC3)c2)c1 | inconclusive: -40.2%
CCCCCCCCCCOC(=O)C[N+](C)(C)CC1CCCCC1O (stereo unspecified) | inconclusive: -41%
C/C(=C\C(=O)c1ccc(Cl)cc1)Nc1ccc(N2CCOCC2)cc1 | inconclusive: -49.4%
CCCCc1ccc(NC(=O)c2ccc3c(c2)CCN3S(=O)(=O)CC)cc1 | active: -63.8%
O=S(=O)(NCc1cccnc1)c1ccc(Cl)c(Cl)c1 | inactive: -13%
COc1ccccc1NC(=S)N(Cc1ccccc1)Cc1cccs1 | inactive: -20%
COc1ccc(OCc2nnc(SCC(=O)NNC(=O)c3ccc(C)cc3)n2C)cc1 | inconclusive: -40.6%
CCOc1ccc(/C=C/c2nc(C#N)c(NC(C)c3ccccc3)o2)cc1 (stereo unspecified) | inconclusive: -48.9%
Cn1ncc2c(N3CCN(c4ccccc4F)CC3)ncnc21 | inconclusive: -53.6% and inconclusive: -48.8%
CSc1ncc(C(=O)Nc2cccc(Cl)c2C)c(C)n1 | inconclusive: -47.7%
CCN(c1ccccc1)S(=O)(=O)c1ccc(Cl)c(C(=O)N(CC2CCCO2)C2CCS(=O)(=O)C2)c1 (stereo unspecified) | inconclusive: -53.5%
COc1ccc(N2CC(NC(=O)c3ccc(S(=O)(=O)N4CCCCC4)cc3)CC2=O)cc1 (stereo unspecified) | inconclusive: -54%
Cc1ccccc1-c1ccc2c(c1)O[C@@H](CN(C)Cc1ccc(C(=O)O)cc1)[C@@H](C)CN([C@H](C)CO)S2(=O)=O | inconclusive: -58.7%

Structure (SMILES) | activity change, negative = inhibition
Cc1cc(=O)oc2ccc(OC(C)C(=O)O)cc12 (stereo unspecified) | inconclusive: -52.3%
Cc1ccsc1C(C(=O)NCc1ccccc1)N(C(=O)c1csnn1)c1ccccc1 (stereo unspecified) | inconclusive: -49.1%
Cc1ccc(CNC(=O)c2ccc3nc(SCc4ccc(F)cc4)[nH]c3c2)cc1 | inconclusive: -43.4%
CCS(=O)(=O)N1CCC(C(=O)N2CCN(Cc3ccccc3)CC2)CC1 | inconclusive: -45.6%
CN1C(=O)C(N=Nc2ccc([N+](=O)[O-])cc2)SC1=S (stereo unspecified) | inconclusive: -45.6%
COc1ccc2c(c1)NC(C)(C)C=C2C | inactive: -30.2%
Cc1nc2ccc(NS(=O)(=O)c3ccc(C)c(C)c3)cc2s1 | active: -88.4%
Cc1ccc2c(c1)c1c(n2CC(O)CN2CCCCCC2)CCCC1 (stereo unspecified) | active: -76.8%
CC(=O)Nc1ccccc1-c1nc2ccccc2n(CC(=O)Nc2cccc(C(F)(F)F)c2)c1=O | inconclusive: -50.2%
CN(C)c1cccc(C(=O)NCc2ccc3c(c2)OCO3)c1 | inactive: -9.32%
O=C(CNC(=S)N(Cc1ccccc1)Cc1ccccc1F)NCc1ccccc1 | inconclusive: -46.1%
CCn1c(CC(=O)Nc2ccccc2Cl)nnc1SCC(=O)NC1CCCC1 | inactive: 16%
Cc1ccc(OCC(=O)N/N=C/c2cn(C)c3ccccc23)cc1 | inconclusive: -55.3%
Cn1c(=O)c2c(nc(NN=C3CCCC3)n2C)n(C)c1=O | inactive: -13.7%
C/C(N)=C(/C#N)C(=O)CN1C(=O)NC(Cc2c[nH]c3ccccc23)C1=O (stereo unspecified) | inactive: -37.3%
Cc1cc(OC(=O)c2cccs2)c2c3c(c(=O)oc2c1)CCCC3 | inconclusive: -51.8%
O=C(NCCc1cnn(-c2ccccc2)c1)c1cc(COc2c(F)cccc2F)on1 | inconclusive: -45.9%
CCOC(=O)C1=CNS(=O)(=O)NC1c1ccc(C(F)(F)F)cc1 (stereo unspecified) | inactive: -27.7%
CO/N=C(/CS(=O)Cc1ccccc1Cl)c1ccc(Cl)cc1Cl (stereo unspecified) | inconclusive: -45.6%
Cc1ccc(C)c(N2CCN(C(=O)CSCc3ccccc3Cl)CC2)c1 | inconclusive: -51.2%
O=C(Nc1ncc([N+](=O)[O-])s1)c1cccs1 | inactive: 1.81% and inconclusive: -59.7%
CC(C)(C)c1ccc(C(=O)Nc2onc3c2CCCC3)cc1 | active: -74.7%

2 consecutive entries already listed, for reference:
Structure (SMILES) | activity change, negative = inhibition
Cc1cc(=O)oc2ccc(OC(C)C(=O)O)cc12 (stereo unspecified) | inconclusive: -52.3%
Cc1ccsc1C(C(=O)NCc1ccccc1)N(C(=O)c1csnn1)c1ccccc1 (stereo unspecified) | inconclusive: -49.1%

Further results follow:

Structure (SMILES) | activity change, negative = inhibition
COc1cc(C(=O)O[C@H]2CC(C)=CC[C@@]3(C)CC[C@@](O)(C(C)C)[C@H]23)ccc1O | inactive: 16.5%
COc1cc([N+](=O)[O-])ccc1NC(=O)CSc1nc2ccccc2n1-c1ccccc1 | inconclusive: -46.2%
COc1ccc(C(=O)NCC(c2ccc(N(C)C)cc2)N2CCc3ccccc32)cc1OC (stereo unspecified) | inconclusive: -52.4%
CC(=O)c1ccc(Cc2ccc(C(C)=O)cc2)cc1 | active: -88.2%
COc1ccc2c(C)cc3n[nH]c(=S)n3c2c1 | inconclusive: -50.9%
N/C(=N\OC(=O)CCCc1ccccc1)c1ccccc1Cl | inactive: 42%
CCCCNC(=O)C1C(c2ccccc2)=Nc2ccccc2N1C(=O)c1ccc(C(F)(F)F)cc1 (stereo unspecified) | inconclusive: -50.5%
CN(C)S(=O)(=O)c1cc(NC(=O)CSc2ncc(C(F)(F)F)cc2Cl)ccc1Cl | inconclusive: -50.5%
O=C(Nc1cccc(F)c1)c1ccc2c(c1)N(Cc1ccccc1)C(=O)c1ccccc1S2(=O)=O | active: -88.6%
C[C@H]1[C@H](c2ccccc2)Oc2cc(Br)ccc2S(=O)(=O)N1Cc1ccc(Cl)cc1 | inconclusive: -45.3%
Clc1cc(Br)ccc1OCCOCCN1CCCC1 | inactive: 9.07%
Cc1c(C(=O)C(=O)N2CCCc3ccccc32)c2ccccc2n1C | inconclusive: -47.4%
CCN1CCN(C(=S)c2ccc(OCC(=O)NCc3ccccc3)cc2)CC1 | inactive: -15.6%
COc1ccccc1Cn1c(=S)[nH]c2ccccc2c1=O | inactive: 15.5%
CCCOc1ccc(/C=N/NC(=O)CN2CCCCC2)cc1OCC | inconclusive: -40.5%
O=C(Nc1cccc(-c2cccc(Cl)c2)c1)C1CCN(CC2CCOC2)CC1 (stereo unspecified) | inconclusive: -52.1%
CC(C)Oc1cccc(C(=O)C2CCCN(C(=O)c3cc(C4CC4)[nH]n3)C2)c1 (stereo unspecified) | inconclusive: 0%
O=C(Nc1ccc([N+](=O)[O-])cc1)c1cncc(Br)c1 | active: -85.2%
CCn1cc(C2=NOC(C(=O)Nc3cc(C)nn3-c3ccccc3)C2)c(C)n1 (stereo unspecified) | inactive: -3.93%
Cc1ccc(C(=O)c2oc3ccccc3c2NC(=O)c2cc(-c3ccccc3O)n[nH]2)cc1 | active: -63%
